Some of these results come from one statement about several compounds together.
Target: T1, wild-type c-Kit receptor protein (Homo sapiens, UniProt P10721)
T1 construct: wild-type c-Kit receptor protein that is endogenously expressed in H526 cells; endogenous in cells; host or cells: H526 (ATCC # CRL-5811), human small cell lung cancer
Experiment: C-KIT H526 cell assay: cell-based ELISA for inhibition of c-Kit in intact cells
Conditions: 3 h compound pre-incubation, SCF stimulation 15 min, bounds printed with mixed units (nM and μM)

Chains of the proteins cited; added tags and fusions are not shown. Residues count along the entry.
UniProt P10721, 26-976: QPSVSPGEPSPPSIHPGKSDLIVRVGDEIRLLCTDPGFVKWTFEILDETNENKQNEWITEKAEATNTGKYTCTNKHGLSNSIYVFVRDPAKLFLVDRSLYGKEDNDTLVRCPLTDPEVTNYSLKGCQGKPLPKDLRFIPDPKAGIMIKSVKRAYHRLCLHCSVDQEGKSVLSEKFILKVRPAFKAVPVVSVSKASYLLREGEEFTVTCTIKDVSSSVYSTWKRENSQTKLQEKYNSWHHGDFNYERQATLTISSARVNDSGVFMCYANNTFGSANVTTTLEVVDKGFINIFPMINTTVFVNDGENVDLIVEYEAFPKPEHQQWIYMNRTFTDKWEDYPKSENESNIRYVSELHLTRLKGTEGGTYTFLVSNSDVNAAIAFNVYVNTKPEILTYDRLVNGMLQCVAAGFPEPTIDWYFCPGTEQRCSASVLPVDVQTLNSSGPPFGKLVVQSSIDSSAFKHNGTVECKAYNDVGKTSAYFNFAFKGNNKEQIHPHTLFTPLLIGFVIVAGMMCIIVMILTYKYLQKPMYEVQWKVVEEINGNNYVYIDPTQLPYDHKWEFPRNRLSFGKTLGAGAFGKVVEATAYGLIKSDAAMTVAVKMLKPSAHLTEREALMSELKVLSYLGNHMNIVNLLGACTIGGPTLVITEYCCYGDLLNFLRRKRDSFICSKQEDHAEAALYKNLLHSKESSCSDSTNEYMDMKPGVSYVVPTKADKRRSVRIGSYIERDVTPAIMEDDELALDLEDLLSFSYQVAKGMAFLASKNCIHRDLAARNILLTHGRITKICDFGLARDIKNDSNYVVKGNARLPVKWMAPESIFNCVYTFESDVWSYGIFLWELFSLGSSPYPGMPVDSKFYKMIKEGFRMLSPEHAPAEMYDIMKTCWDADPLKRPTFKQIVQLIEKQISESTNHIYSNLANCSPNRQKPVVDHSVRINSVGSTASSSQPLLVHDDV

Row | Structure (SMILES) | IC50 (concentration of compound that inhibits SCF-induced tyrosine phosphorylation of the c-Kit protein by 50%)
1 | CN(C)c1c(Nc2ccc(NC(=O)c3sccc3NCc3ccnc4ccccc34)cc2)c(=O)c1=O [Compound 1, 3-[(Quinolin-4-ylmethyl)amino]-N-(4-{[2-(dimethylamino)-3,4-dioxocyclobut-1-en-1-yl]amino}phenyl)thiophene-2-carboxamide] | greater than
2 | Cc1ccc(NC(=O)c2sccc2NCc2ccnc3ccccc23)cc1-c1c(NCC2CCCCC2)c(=O)c1=O [Compound 3, N-{3-[2-[(Cyclohexyl)methylamino]-3,4-dioxocyclobut-1-en-1-yl]-4-methylphenyl}-3-[(pyridin-4-ylmethyl)amino]thiophene-2-carboxamide] | greater than

Reference: US7829717B2, “(Arylamidoaryl)squaramide compounds” (OSI Pharmaceuticals, Inc., priority 2004, dated 2010)
